Drawing on patent US5486596A (Ceskoslovenska akademie ved, priority 1989, dated 1996), this text covers crude mass and isolated mass for 2 substances.

HELM strings list residues between dots; [ac] is acetyl, [am] amide, other brackets name non-standard units.

A short description of the series: general procedure: Boc solid-phase peptide synthesis; Benzhydrylamine resin (0.56 mmol/g); Boc-amino acid active esters (OBt), 3 molar excess; 4-dimethylaminopyridine cata. The following applies: whole synthesis.

As for “PEPTIDE1{C.[Tyr(Me)].F.Q.N.C.P.[D-Har].G.[am]}$PEPTIDE1,PEPTIDE1,1:R3-6:R3$$$V2.0”, for the setting “scale 0.48 mmol, TFA”, the crude mass is recorded as 353 mg. Besides, the isolated mass (scale 0.48 mmol, TFA salt) was 160 mg.

For the setting “scale 0.33 mmol, TFA”, “PEPTIDE1{[Mpr].[Tyr(Me)].F.Q.N.C.P.[D-Har].G.[am]}$PEPTIDE1,PEPTIDE1,1:R3-6:R3$$$V2.0” showed a crude mass of 47 mg and an isolated mass of 9 mg.
